Experimental data reported in paper PMC5814047 (PLoS ONE, 2018).
End groups of sequences in plain letters are not given here.

Test: peptide synthesis
Settings: whole synthesis, HPLC

## ACSWWSIHLCG
  purity (crude or final not stated): ~95%
